PubChem BioAssay AID504784 – Drosophila RNAi Screening Center | 2011
The deposit covers about 17,000 reagents; shown is an unselected part of those with a known target gene and a result. 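Each column is one replicate's B-score; the combined score over replicates was not deposited, so single values may mislead.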 A plus sign joins genes that one reagent is predicted to hit.

Purpose: 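Fly genes whose silencing alters how much lipid cells keep in droplets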 (primary screen)
System: Drosophila Kc167 embryonic cells
Knock-down reagent: long dsRNA against Drosophila genes, about 250 ng dsRNA per well
Time to read-out: 4 days
Challenge: cells fed 400 µM oleic acid bound to BSA
Read-out: 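Microscope images give a droplet-to-nucleus area ratio, taken as log and converted to a screen-wide B-score; higher values mean greater lipid storage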
Direction: droplet/nuclear area B-score: higher = more stored lipid (overstorage)

| gene knocked down | amplicon | droplet/nuclear area B-score, replicate 1 | droplet/nuclear area B-score, replicate 2 | droplet/nuclear area B-score, replicate 3 |
| --- | --- | --- | --- | --- |
| stx | DRSC18442 | 1.27 | -1.72 | 1.35 |
| stx | DRSC18443 | 1.31 | -0.36 | 1.2 |
| stx | DRSC23075 | -0.245 | 3.79 | – |
| CG31913 | DRSC00892 | 1.28 | 0.102 | – |
| CG14562 | DRSC11723 | 0.391 | -0.122 | – |
| CG4291 | DRSC00650 | -0.763 | -0.0279 | – |
| CG16820 | DRSC02522 | 1.11 | 1.34 | – |
| CG8726 | DRSC07250 | -0.117 | 6.56 | – |
| CG14480 | DRSC06452 | -0.118 | -0.933 | – |
| CG7236 | DRSC03037 | -1.46 | 1.53 | – |
| CG5554 | DRSC04513 | -0.529 | 0.941 | – |
| CG3408 | DRSC10360 | -1.19 | -2.55 | – |
| CG3984 | DRSC15530 | 0.354 | 0.412 | – |
| gt | DRSC18782 | -0.048 | 1.07 | – |
| gt | DRSC23119 | 0.975 | 1.5 | – |
| CG12769 | DRSC06167 | 0.243 | -0.152 | – |
| et | DRSC19582 | -1.31 | 0.34 | – |
| Rad1 + Sws1 | DRSC00778 | 0.124 | -3.85 | – |
| CG13722 | DRSC08331 | 0.674 | -0.696 | – |
| CG13722 | DRSC21616 | 0.276 | 2.42 | – |
| Cyp4d8 | DRSC11131 | 1.45 | 2.67 | – |
| Hrb87F | DRSC16708 | -1.73 | 15.9 | – |
| mbc | DRSC16995 | 0.508 | -0.585 | – |
| CG6013 | DRSC15947 | -0.0853 | -3.08 | – |
| CG44001 + CG33995 | DRSC00853 | 0.256 | 0.384 | – |
| CG44001 + CG33995 | DRSC02898 | -2.42 | -0.651 | – |
| Npc1b | DRSC20488 | 1.75 | 1.4 | – |
| rau | DRSC03125 | 0.455 | -0.0665 | – |
| Atpalpha | DRSC14119 | 2.61 | 2.44 | – |
| CG1638 | DRSC15132 | 0.12 | -1.17 | – |
| SF2 | DRSC16845 | 1.56 | 1.41 | – |
| CG11000 | DRSC12158 | -0.97 | -2.22 | – |
| CG10853 | DRSC08164 | -0.26 | -1.49 | – |
| CG16852 | DRSC01876 | -0.391 | -0.598 | – |
| Cpr73D | DRSC11084 | -0.286 | 1.82 | -1.2 |
| sqh | DRSC18837 | -0.551 | 0.0947 | -0.0513 |
| Galphaf | DRSC11171 | -0.636 | -0.244 | – |
| Tpc2 | DRSC04322 | -1.07 | 0.462 | – |
| eg | DRSC11885 | -0.276 | -1.05 | – |
| Anp | DRSC14112 | 1.6 | 0.0111 | – |
| CG5618 | DRSC11780 | 0.752 | 1.01 | -1.49 |
| Fit1 | DRSC08450 | -0.192 | 2.04 | – |
| CG32320 | DRSC21514 | 0.237 | 0.229 | – |
| CG14985 | DRSC08443 | 0.661 | 1.91 | – |
| CG13482 | DRSC10024 | 1.87 | -0.00588 | -0.75 |
| gdl-ORF39 + gdl | DRSC11350 | -1.18 | -1.45 | – |
| Nepl15 | DRSC15630 | -2.24 | 0.0211 | – |
| CG32625 | DRSC18994 | 1.62 | 0.262 | – |
| vnc + CG42455 | DRSC09867 | 2.62 | – | – |

Quoted from above for reference:
| gene knocked down | amplicon | droplet/nuclear area B-score, replicate 1 | droplet/nuclear area B-score, replicate 2 | droplet/nuclear area B-score, replicate 3 |
| --- | --- | --- | --- | --- |
| stx | DRSC23075 | -0.245 | 3.79 | – |
| CG31913 | DRSC00892 | 1.28 | 0.102 | – |
| CG14562 | DRSC11723 | 0.391 | -0.122 | – |
| CG4291 | DRSC00650 | -0.763 | -0.0279 | – |
| CG16820 | DRSC02522 | 1.11 | 1.34 | – |
| CG8726 | DRSC07250 | -0.117 | 6.56 | – |

The listing continues.
| gene knocked down | amplicon | droplet/nuclear area B-score, replicate 1 | droplet/nuclear area B-score, replicate 2 | droplet/nuclear area B-score, replicate 3 |
| --- | --- | --- | --- | --- |
| CG14731 | DRSC14952 | -1.12 | 0.0905 | – |
| QC | DRSC09736 | 0.0196 | -0.943 | – |
| U2af38 | DRSC00796 | 1.92 | -3.52 | – |
| VAChT + ChAT | DRSC13312 | 1.4 | -0.919 | – |
| 4E-T | DRSC17201 | -0.0411 | – | – |
| 4E-T | DRSC17208 | 2.12 | 0.78 | – |
| P5CS | DRSC11831 | -0.615 | -0.193 | -0.0572 |
| P5CS | DRSC11832 | -1.48 | -1.56 | – |
| daw | DRSC00479 | -1.14 | -0.613 | – |
| Lon | DRSC11049 | -0.4 | 0.663 | 0.115 |
| Ctps | DRSC09342 | -3.63 | -0.214 | – |
| Ctps | DRSC10728 | 1.28 | -0.186 | -0.271 |
| Ctps | DRSC10729 | 1.36 | 1.69 | – |
| Muc11A | DRSC19498 | 0.0235 | -1.43 | -0.679 |
| Actn3 | DRSC14106 | -0.0272 | -0.00648 | – |
| mbo | DRSC16123 | 0.96 | 0.996 | – |
| Tsp33B | DRSC02418 | -0.854 | 0.127 | – |
| Pkcdelta | DRSC19356 | 1.82 | -0.555 | -0.0991 |
| Pkcdelta | DRSC19399 | 1.38 | -0.43 | 0.136 |
| Best1 | DRSC16909 | -0.681 | -0.0477 | 0.306 |
| CG15022 | DRSC08476 | -0.478 | 0.162 | – |
| ktub | DRSC04551 | -0.0539 | 0.576 | – |
| CG30053 | DRSC07260 | 0.0282 | 0.506 | – |
| Mapmodulin | DRSC06956 | -0.0225 | – | – |
| CG6026 | DRSC15950 | -0.207 | 0.819 | – |
| mxc | DRSC17819 | 0.206 | -1.14 | 0.752 |
| RpL5 | DRSC03801 | -1.17 | 6.56 | – |
| Or47a | DRSC07491 | -0.682 | 0.583 | – |
| nerfin-1 | DRSC08729 | -0.279 | 0.636 | – |
| Ak1 | DRSC10248 | 2.52 | 1.75 | – |
| CG42534 | DRSC14722 | 1.17 | -0.877 | – |
| CG42534 | DRSC14759 | 1.63 | 1.84 | – |
| CG42534 | DRSC16072 | 1.11 | -1.26 | – |
| CG42534 | DRSC23131 | -0.231 | 0.457 | – |
| CG42534 | DRSC23246 | 0.432 | -0.937 | – |
